The whole screen tested about 52,000 sequences, of which about 210 (0.4%) were called active.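 How the source made its calls: active means gene whose silencing raises cell survival under the drug, median off-target-corrected z-score across its silencing RNAs 2 or more; inactive means the rest.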 This is one part of the list.

The assay can be described thus: Resistance to Poly (ADP-Ribose) Polymerase inhibitor: Gene Identification via Genome-wide siRNA Screen. Conditions: mouse BRCA2 R2336H ES cells, olaparib, CellTiter-Glo viability; active compounds read high. A digest of the protocol: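 Genome-wide siRNA screen (3 siRNAs/gene, 20 nM) in mouse ES cells carrying hypomorphic BRCA2 R2336H; olaparib 500 nM added 48 h post-transfection, CellTiter-Glo viability 72 h later. Normalized to plate-median negative control; MAD z-scores, gene median, seed-adjusted.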
Take UCCAGAGGAUCCGCUGUGATT against Kb37: the z-score was inactive: -1.11. On to GGCAAUAACCAGUAAAUGUTT against AV284857, for which the z-score is inactive: -1.75. To GGGUGGUUGUAAAAAUUCUTT against Csnk2a2 belongs inactive: 2.36; to “GCUUCUAAAUUUGGUUCUGTT against 9830163H01Rik”, inactive: -0.157. Consider GCACUAUGGUCCAUAUUAUTT against Olfr154, for which the z-score was inactive: -0.715.

On to “CGGCAGGACAAAUCUAGAUTT against 9830134C10Rik”, for which the z-score is inactive: -0.541. GGUAUACUAGUUUGAAGAGTT against Rpl21: the z-score is inactive: 1.13.

As to GGAAGUACUUCGAUGAAAATT against Bdh, the z-score is inactive: 0.215. To “GGAUAAAGUACUCCAUUAATT against B930067F20Rik” belongs inactive: -2.51; to CCCUCAAUGGCCUCAAACUTT against Elavl3, inactive: 1.79. To GCACCAAGGAGUUUCAUUUTT against Acadm belongs inactive: -0.28; to GGAACAGGUGAUCCGCUACTT against Lzts2, inactive: 0.495; to GCAGAUCGAAUAAUAAGAGTT against Rbbp5, inactive: -0.261. For GGCCUACAGCUGGAAAGAATT against Chrm1, the z-score was inactive: 0.954. To GGACAUAAAAGACUUAAAGTT against Actr8 belongs active: 3.83; to GCAUAUAUUCACCACUAACTT against BC067068, inactive: 0.905; to GGAUUUCCCAAGCCUUAUUTT against Sncaip, inactive: -0.972.

In the case of CCUUAAAAACUCGAGUAAATT against Gla, the z-score was inactive: 0.205. To GCAAAGAGAGUUCGAAUAATT against Klhl2 belongs inactive: -0.429. To GGCCAUGGACAAAAUGUACTT against Tcfap2a belongs inactive: -0.341. The figure for GCCACAACUCCAGAUGCCUTT against Olfr937 is inactive: 0.848. Regarding AAUGUUGAAAACAAGAGCCTT against V1rd14, the z-score is inactive: 1.38. The figure for GGUGAUGUAUAUUGAGUCUTT against Sdcbp2 is inactive: -0.865; for GCUCUGUGGACUUCUUGGATT against Znrf4 it is inactive: -0.564. Regarding “GGCUGAAGACAAAACCUGUTT against A230102I05Rik”, the z-score was inactive: 1.52. CCAUUGCCUCACACGAGGATT against Lgals3bp: the z-score is inactive: 0.956. Turning to GGAGUUAAAUCCCAAACACTT against C2b, the z-score is inactive: 0.6. Take GGUUGGAUGCUUUCUAAGATT against Pot1: the z-score is inactive: 0.673.

With GGGCUGGAAUCUAGGAAGUTT against Gpr2, the z-score is inactive: -0.0856.

Consider GGUAUCGUAUAUGGAGAUCTT against Kif13a, for which the z-score was inactive: 0.0524. The figure for CCUGAUAUACAAUCUAACCTT against Fv4 is inactive: 1.24; for CGGCAACCACAAUAUCAAUTT against Mill1 it is inactive: 0.311. CGAUGGCUCUACCAAAGGCTT against Urod: the z-score was inactive: 0.117.

Regarding GGUUUUUUUCCUGUGAAUGTT against BQ176089, the z-score was inactive: -0.0104. The figure for CCAAUGUGUUUGCCAAUAGTT against Psph is inactive: 0.161; for GGACAUUAUUUCUAUAUGGTT against Eif4el3 it is inactive: 0.651.

With GGUUGAAGAAUAGAAUGUCTT against Cda, the z-score was inactive: -1.61. To GGGAAAAUUAGAAGUCAGGTT against Dscam belongs inactive: 0.879; to GCUGGUUUUUGUCAUAAACTT against Olfr1316, inactive: 1.93. To GGUUGAGUGGCAUUUUUUATT against MGC27742 belongs inactive: -1.19; to CCGAUUUGAUACCCUGGAATT against Tfpi, inactive: -2.41. To GCAGCUAGCAACAUAGUAUTT against Wbscr22 belongs inactive: -2.19; to GGAGAAAGACAACUUCCUATT against Clecsf12, inactive: 0.778.

Regarding GGAAGAAAGAAGAAGAGACTT against Lig1, the z-score is inactive: -2.19. To “CCUCGAAAAUUUGAUACCGTT against 4930562C03Rik” belongs inactive: -0.735. As for GGAUCGAAUCAGGAAUGAATT against Nphs1, the z-score was inactive: 0.279. The figure for GGGCCAGUACCAGAAAGAATT against Xcl1 is inactive: -1.81.

On to GGACUGACCCUGUAAAGAUTT against Zfp296, for which the z-score is inactive: -1.1.

Turning to GGAAUGUAUGGUGAGACUUTT against Ap4e1, the z-score is inactive: -0.686. For the sequence GGCUUCAAGCUAUUCAUGATT against Dgkb, the z-score was inactive: -0.444. To GCAGCGAUAUGACAGACUCTT against Axud1 belongs inactive: -1.06. Turning to GGUUCAGCAUUUUAAAGUGTT against Eif2c3, the z-score was inactive: 0.809. To “GGCAAAAGAUUACAACAGATT against 1700026P10Rik” belongs inactive: 0.979; to “GCUCUGCUCUUCUGAAGCATT against 1110033C18Rik”, inactive: 0.0881. Turning to CUAUCAAGGGCAGUCAACUTT against Olfr1208, the z-score is inactive: -1.87.

For the sequence GGGCGAAUUUAACACAGUGTT against Txnrd1, the z-score is inactive: 1.14. To GGCGAGAAACCUUUCAGAUTT against Zic4 belongs inactive: -0.708; to GGCAAACAGACUGAGUUUATT against Tsc2, inactive: 0.227; to AGGAAAACGCAUAGCUUAUTT against LOC434225, inactive: -0.709.

For the sequence GGGUUUAGCUCACUGAGUATT against Tm4sf5, the z-score was inactive: -0.401. Turning to GGAAAACGGAGAUUUGGAGTT against Es2el, the z-score is inactive: 0.943. The figure for GGUCAUGUGAAUUUUUCUGTT against Snrp116 is inactive: -3.08; for GGGUCUGGUGUUAUAUUUGTT against C78409 it is inactive: 0.224; for GGUGGACAAUCUGGUCAACTT against Mgat5 it is inactive: 0.288. To CCGACAUUCAACAAGAUUUTT against Mta1 belongs inactive: 0.599; to GGAACAUUACAAAAGCUCUTT against Slfn1, inactive: -0.715; to CCAAAUUACUAGGUUAAAGTT against Rasgrp3, inactive: -1.15. For GUCACUAUUAAGACACUUATT against BC024322, the z-score is inactive: -0.851.

In the case of GGACCUUGACGUACAUCAATT against BC019561, the z-score is inactive: 0.62.

For GCUCGGAUUUCCUACUCACTT against Agps, the z-score is inactive: 0.386. For GGUUGAUUUAAACAUUGGATT against Pcdhgb2, the z-score is inactive: 0.781. Regarding CCCUGACCGUUUGCUAUAUTT against LOC574530, the z-score is inactive: -0.803. To GGUCAACUGAAGAAGAACATT against Rg9mtd2 belongs inactive: -0.389. In the case of GGAGAACUCUUUCAGAUUCTT against Stk36, the z-score was inactive: -0.964.

Regarding CCGCUACCUCUCGCUAUAUTT against Gpr12, the z-score is inactive: -0.839. For GUAAUCUGUCUUUCGUUGATT against Olfr957, the z-score is inactive: -0.0539. Turning to “GGACAAGCAACGUAUGUUCTT against 2610528M18Rik”, the z-score is inactive: 1.49. On to GGGCGAGCAGUUUGUGUUUTT against Crybb2, for which the z-score was inactive: 0.245. To CGAUAAGAAUCUCUUCCGCTT against BC017634 belongs inactive: 0.642; to CCUGAAAGUUCAAAUGUCATT against Ankrd12, inactive: -1.41. The figure for GGCUGUGAUGUAAAACAGATT against Gm185 is inactive: 1.19.

Consider “GCCCUUGGGAUAAUUAUUGTT against 9930019B18Rik”, for which the z-score is inactive: -0.534.

With GGAAAAGCAAGAGGAAAGATT against Ifnb1, the z-score is inactive: -1.47.

On to “GCUAAAAAUAAACAGUCGGTT against 4933435A13Rik”, for which the z-score was inactive: 0.762. The figure for GGAAAACUACUGGAACUGGTT against Ifi1 is inactive: 0.0555; for “GGAGCUCAUUAGCAAAUAUTT against E030002O03Rik” it is inactive: -2.5. Regarding GGCGAGUUUUAUGUCAUUGTT against Fxr1h, the z-score was inactive: 0.652.

On to GGAACUCUUGGAAGAAUAUTT against Katnal1, for which the z-score is inactive: -1.64. To CCUUCGGCAACUUUCUAUUTT against Thrap6 belongs inactive: 0.288; to “GGUCAGGAAAUAUUCUUAATT against A630001G21Rik”, inactive: -0.863. For the sequence GAUAUACAGCAUACUCUCATT against Olfr1087, the z-score is inactive: -0.717. To CCAAUGAAACCUGCUUGGGTT against Cd200r2 belongs inactive: -0.0211; to CCUAUGGAGAGUAUGACUATT against Khdrbs3, inactive: 1.17. Consider GGCCUGAACCUCUUUCAAGTT against Mep1a, for which the z-score is inactive: -0.559. The figure for CGAGUCUUGUGGAGUUUCGTT against Spint2 is inactive: -0.597; for “GGCUUCUAAGCAUACUCAGTT against D6Ertd349e” it is inactive: -2.21. GUGAUGACUGAGCUUCUAATT against Olfr1446: the z-score was inactive: -1.51. The figure for GCUUGUUGAUCAAUAACCCTT against Cntn4 is inactive: -0.00874; for CCAACACGACGCAGGAAAUTT against Nr0b1 it is inactive: 1.9. The figure for “GGGCUCACAUUGUACACACTT against D130011D22Rik” is inactive: -0.224. The figure for “GGAAAUAGAGGGAGAAUAATT against A730037C10Rik” is inactive: -1.88. GGGAGAUGAAGAACUAUGUTT against Hmgb2: the z-score is inactive: -2.56.

With GGAUUUUGACAACAUCUCCTT against Pak7, the z-score was inactive: 0.0926. With GGAGCAGCAGAAGGUUCUUTT against Olfr434, the z-score was inactive: -1.29.

(Values after PubChem BioAssay AID1347423 (Functional Genomics Laboratory (NCATS/FGL), 2020).)
